Assay results: publication PMC6053445
For at least one entry, the source does not settle the construct or the ends of the probe. At least one verdict rests on a figure or table, not on a statement of the authors. Protein sequences can lack the tags named with them.

Target: T1, Sap1 (Schizosaccharomyces pombe) (UniProt P40847)
T1 sequence (looked up, limits assumed): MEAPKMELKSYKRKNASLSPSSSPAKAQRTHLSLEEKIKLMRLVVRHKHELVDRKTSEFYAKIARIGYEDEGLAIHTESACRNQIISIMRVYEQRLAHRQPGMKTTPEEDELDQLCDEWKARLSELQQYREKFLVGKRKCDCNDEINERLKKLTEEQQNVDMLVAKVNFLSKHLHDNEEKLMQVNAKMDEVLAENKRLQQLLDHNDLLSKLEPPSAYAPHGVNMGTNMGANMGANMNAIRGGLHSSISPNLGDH
Assay: EMSA
Details: Kd not in the text, see Fig. S3B,C; EMSA: protein 0.68-5120 nM (dilution buffer 10 mM HEPES pH 7.5, 100 mM NaCl, 5% glycerol) in 20 mM HEPES pH 7.6, 50 mM KCl, 3 mM MgCl2, 8% glycerol, 0.2% NP-40; recombinant protein; label: 32P

Sequence | binding result
AACCAGGGATTCAGTGCAGCTATCTTG (double strand) [Ter1] | binds
AGCAATACTACACTACGCTATAATACACTACGTTGAGTATCACTATATGT (double strand) [Tf2] | binds
